This note sets out measurements from patent publication US20060276387A1 (published 2006).

By UniProt entry, the sequences of proteins in these tests, tags left out. Where a name states a change or a piece, a line headed by the entry shows the natural chain unless it says otherwise.
UniProt P15884: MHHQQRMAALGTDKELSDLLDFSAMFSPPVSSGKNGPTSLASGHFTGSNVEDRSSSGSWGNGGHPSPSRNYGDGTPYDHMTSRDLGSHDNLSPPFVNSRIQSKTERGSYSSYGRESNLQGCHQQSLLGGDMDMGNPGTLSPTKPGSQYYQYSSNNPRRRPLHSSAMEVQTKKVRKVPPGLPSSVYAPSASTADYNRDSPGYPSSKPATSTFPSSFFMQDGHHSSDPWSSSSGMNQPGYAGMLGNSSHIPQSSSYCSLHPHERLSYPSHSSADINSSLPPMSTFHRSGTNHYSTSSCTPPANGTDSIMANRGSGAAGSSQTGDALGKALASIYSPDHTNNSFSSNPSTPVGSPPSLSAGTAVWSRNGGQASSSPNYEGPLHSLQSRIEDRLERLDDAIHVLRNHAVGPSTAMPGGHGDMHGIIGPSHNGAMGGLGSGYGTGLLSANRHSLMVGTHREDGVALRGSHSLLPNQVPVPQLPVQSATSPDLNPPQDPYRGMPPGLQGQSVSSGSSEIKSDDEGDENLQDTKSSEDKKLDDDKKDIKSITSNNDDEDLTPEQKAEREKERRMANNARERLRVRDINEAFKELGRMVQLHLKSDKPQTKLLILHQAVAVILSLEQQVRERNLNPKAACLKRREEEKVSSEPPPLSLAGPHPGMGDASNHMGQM

Results are given in words; binding and its absence hold for the method and conditions named. In cells and extracts the contact can be indirect. Some binding calls cover weakened binding; strength is not graded here. Tags and fused reporters may be left off the sequences shown.

Assay [1] deals with N-terminus GST-fused IPF1 (GST-IPF1), human insulin promoter factor 1 (human). The assay is described as follows: GST pull-down of Example 2, told again in Example 3.
Assay [2] has the same target. Briefly: GST pull-down with GST-IPF1, 35S-labeled in vitro translated protein, autoradiography.

For the molecule “human transcription factor 4 (TCF4), N-terminus HA-tagged (from UniProt P15884 1-667)”, the binding result in assay [1] and in assay [2] was “binds” in each case.

B1: human distal-less homeobox 4 (DLX4), N-terminus HA-tagged (other, not shown: small tags and cut ends)
chain: MTSLPCPLPGRDASKAVFPDLAPVPSVAAAYPLGLSPTTAASPNLSYSRPYGHLLSYPYTEPANPGDSYLSCQQPAALSQPLCGPAEHPQELEADSEKPRLSPEPSERRPQAPAKKLRKPRTIYSSLQLQHLNQRFQHTQYLALPERAQLAAQLGLTQTQVKIWFQNKRSKYKKLLKQNSGGQEGDFPGRTFSVSPCSPPLPSLWDLPKAGTLPTSGYGNSFGAWYQHHSSDVLASPQMM
modifications: 35S-methionine-labeled (in the pull-down)
B1: the binding entry in assay [1] and in assay [2] was “binds” each time.

B2: human thymopoietin (TMPO), N-terminus HA-tagged (protein, not shown: small tags and cut ends)
chain: MPEFLEDPSVLTKDKLKSELVANNVTLPAGEQRKDVYVQLYLQHLTARNRPPLPAGTNSKGPPDFSSDEEREPTPVLGSGAAAAGRSRAAVGRKATKKTDKPRQEDKDDLDVTELTNEDLLDQLVKYGVNPGPIVGTTRKLYEKKLLKLREQGTESRSSTPLPTISSSAENTRQNGSNDSDRYSDNEEGKKKEHKKVKSTRDIVPFSELGTTPSGGGFFQGISFPEISTRPPLGSTELQAAKKVHTSKGDLPREPLVATNLPGRGQLQKLASERNLFISCKSSHDRCLEKSSSSSSQPEHSAMLVSTAASPSLIKETTTGYYKDIVENICGREKSGIQPLCPERSHISDQSPLSSKRKALEESESSQLISPPLAQAIRDYVNSLLVQGGVGSLPGTSNSMPPLDVENIQKRIDQSKFQETEFLSPPRKVPRLSEKSVEERDSGSFVAFQNIPGSELMSSFAKTVVSHSLTTLGLEVAKQSQHDKIDASELSFPFHESILKVIEEEWQQVDRQLPSLACKYPVSSREATQILSVPKVDDEILGFISEATPLGGIQAASTESCNQQLDLALCRAYEAAASALQIATHTAFVAKAMQADISQAAQILSSDPSRTHQALGILSKTYDAASYICEAAFDEVKMAAHTMGNATVGRRYLWLKDCKINLASKNKLASTPFKGGTLFGGEVCKVIKKRGNKH
modifications: 35S-methionine-labeled
With B2, the binding entry in assay [1] and in assay [2] was “binds” in each case.

B3: human hepatocyte nuclear factor 3-gamma (HNF3G), N-terminus HA-tagged (other, not shown: small tags and cut ends)
chain: MLGSVKMEAHDLAEWSYYPEAGEVYSPVTPVPTMAPLNSYMTLNPLSSPYPPGGLPASPLPSGPLAPPAPAAPLGPTFPGLGVSGGSSSSGYGAPGPGLVHGKEMPKGYRRPLAHAKPPYSYISLITMAIQQAPGKMLTLSEIYQWIMDLFPYYRENQQRWQNSIRHSLSFNDCFVKVARSPDKPGKGSYWALHPSSGNMFENGCYLRRQKRFKLEEKVKKGGSGAATTTRNGTGSAASTTTPAATVTSPPQPPPPAPEPEAQGGEDVGALDCGSPASSTPYFTGLELPGELKLDAPYNFNHPFSINNLMSEQTPAPPKLDVGFGGYGAEGGEPGVYYQGLYSRSLLNAS
modifications: 35S-methionine-labeled (in the pull-down)
Take B3: the binding entry in assay [1] and in assay [2] was “binds” in each case.

B4: human PHD finger protein 1 (PHF1), N-terminus HA-tagged (other, not shown: small tags and cut ends)
chain: MAQPPRLSRSGASSLWDPASPAPTSGPRPRLWEGQDVLARWTDGLLYLGTIKKVDSAREVCLVQFEDDSQFLVLWKDISPAALPGEELLCCVCRSETVVPGNRLVSCEKCRHAYHQDCHVPRAPAPGEGEGTSWVCRQCVFAIATKRGGALKKGPYARAMLGMKLSLPYGLKGLDWDAGHLSNRQQSYCYCGGPGEWNLKMLQCRSCLQWFHEACTQCLSKPLLYGDRFYEFECCVCRGGPEKVRRLQLRWVDVAHLVLYHLSVCCKKKYFDFDREILPFTSENWDSLLLGELSDTPKGERSSKLLSALNSHKDRFISGREIKKRKCLFGLHARMPPPVEPPTGDGALTSFPSGQGPGGGVSRPLGKRRRPEPEPLRRRQKGKVEELGPPSAVRNQPEPQEQRERAHLQRALQASVSPPSPSPNQSYQGSSGYNFRPTDARCLPSSPIRMFASFHPSASTAGTSGDSGPPDRSPLELHIGFPTDIPKSAPHSMTASSSSVSSPSPGLPRRSAPPSPLCRSLSPGTGGGVRGGVGYLSRGDPVRVLARRVRPDGSVQYLVEWGGGGIF
modifications: 35S-methionine-labeled (in the pull-down)
For the molecule B4, the binding entry in assay [1] and in assay [2] was “binds” in each case.
